Some results were stated once for a whole list of compounds, not compound by compound.
Each compound was assayed against T1, P2X3 receptors (UniProt P56373) (assay: FLIPR antagonist assay, receptor or clone not stated (less preferred compounds)). Conditions: compounds also tested.
T1 sequence (P56373 1-397): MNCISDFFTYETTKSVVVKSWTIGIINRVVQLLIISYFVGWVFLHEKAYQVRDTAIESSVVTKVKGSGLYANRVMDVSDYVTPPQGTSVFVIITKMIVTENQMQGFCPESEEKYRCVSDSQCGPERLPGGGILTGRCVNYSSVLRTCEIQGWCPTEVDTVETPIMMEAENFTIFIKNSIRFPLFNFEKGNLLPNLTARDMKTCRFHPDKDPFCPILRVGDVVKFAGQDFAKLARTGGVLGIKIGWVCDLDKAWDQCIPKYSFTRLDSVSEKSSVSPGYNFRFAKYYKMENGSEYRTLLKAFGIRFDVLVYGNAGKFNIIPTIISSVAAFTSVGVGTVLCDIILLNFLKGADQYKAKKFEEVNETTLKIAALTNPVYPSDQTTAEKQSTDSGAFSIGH

IC50, > 3.3 µM:
CC(C)N1Cc2c(Nc3ccc(F)c(F)c3)nc(N3CCOCC3)nc2C1=O [4-[(3,4-difluorophenyl)amino]-6-(1-methylethyl)-2-morpholin-4-yl-5,6-dihydro-7H-pyrrolo[3,4-d]pyrimidin-7-one]
CC(C)N1Cc2c(Nc3ccc(Cl)cc3)nc(N3CCOCC3)nc2C1=O [4-[(4-chlorophenyl)amino]-6-(1-methylethyl)-2-morpholin-4-yl-5,6-dihydro-7H-pyrrolo[3,4-d]pyrimidin-7-one]
CC(C)N1Cc2c(nc(N3CCOCC3)nc2N2CCN(CC3CCCO3)CC2)C1=O (centres unmarked) [6-(1-methylethyl)-2-morpholin-4-yl-4-[4-(tetrahydrofuran-2-ylmethyl)piperazin-1-yl]-5,6-dihydro-7H-pyrrolo[3,4-d]pyrimidin-7-one]
CC(C)N1Cc2c(NC3(c4ccc(F)cc4)CC3)nc(NCCN(C)C)nc2C1=O [2-{[2-(dimethylamino)ethyl]amino}-4-{[1-(4-fluorophenyl)cyclopropyl]amino}-6-(1-methylethyl)-5,6-dihydro-7H-pyrrolo[3,4-d]pyrimidin-7-one]
CCNc1nc(NCc2cnc3ccccc3c2)c2c(n1)C(=O)N(C(C)C)C2 [2-(ethylamino)-6-(1-methylethyl)-4-[(quinolin-3-ylmethyl)amino]-5,6-dihydro-7H-pyrrolo[3,4-d]pyrimidin-7-one]
CCOC(=O)CCCNc1nc(N2CCN(C(C)=O)CC2)nc2c1CN(C(C)C)C2=O [ethyl 4-{[2-(4-acetylpiperazin-1-yl)-6-(1-methylethyl)-7-oxo-6,7-dihydro-5H-pyrrolo[3,4-d]pyrimidin-4-yl]amino}butanoate]
CC(=O)N1CCN(c2nc(NCc3cc(C)n(C)n3)c3c(n2)C(=O)N(C(C)C)C3)CC1 [2-(4-acetylpiperazin-1-yl)-4-{[(1,5-dimethyl-1H-pyrazol-3-yl)methyl]amino}-6-(1-methylethyl)-5,6-dihydro-7H-pyrrolo[3,4-d]pyrimidin-7-one]
CC(C)N1Cc2c(Nc3ccc(F)cc3)nc(N3CCOCC3)nc2C1=O [4-[(4-fluorophenyl)amino]-6-(1-methylethyl)-2-morpholin-4-yl-5,6-dihydro-7H-pyrrolo[3,4-d]pyrimidin-7-one]
CC(C)N1Cc2c(nc(N3CCOCC3)nc2N2CCCN(C)CC2)C1=O [4-(4-methyl-1,4-diazepan-1-yl)-6-(1-methylethyl)-2-morpholin-4-yl-5,6-dihydro-7H-pyrrolo[3,4-d]pyrimidin-7-one]
CC(=O)N1CCN(c2nc(N3CCCC3Cc3ccc(Cl)cc3)nc3c2CN(C(C)C)C3=O)CC1 (centres unmarked) [4-(4-acetylpiperazin-1-yl)-2-[2-(4-chlorobenzyl)pyrrolidin-1-yl]-6-(1-methylethyl)-5,6-dihydro-7H-pyrrolo[3,4-d]pyrimidin-7-one]
CC(=O)N1CCN(c2nc(NC(CO)c3ccc(F)cc3)c3c(n2)C(=O)N(C(C)C)C3)CC1 (centres unmarked) [2-(4-acetylpiperazin-1-yl)-4-{[1-(4-fluorophenyl)-2-hydroxyethyl]amino}-6-(1-methylethyl)-5,6-dihydro-7H-pyrrolo[3,4-d]pyrimidin-7-one]
CC(C)N1Cc2c(NCCc3ccc(Cl)cc3)nc(NCCN(C)C)nc2C1=O [4-{[2-(4-chlorophenyl)ethyl]amino}-2-{[2-(dimethylamino)ethyl]amino}-6-(1-methylethyl)-5,6-dihydro-7H-pyrrolo[3,4-d]pyrimidin-7-one]
CC(C)N1Cc2c(NCCc3ccccn3)nc(N3CCOCC3)nc2C1=O [6-(1-methylethyl)-2-morpholin-4-yl-4-[(2-pyridin-2-ylethyl)amino]-5,6-dihydro-7H-pyrrolo[3,4-d]pyrimidin-7-one]
CC(C)N1Cc2c(Nc3ccc(Cl)cc3)nc(N3CCN(C=O)CC3)nc2C1=O [4-{4-[(4-chlorophenyl)amino]-6-(1-methylethyl)-7-oxo-6,7-dihydro-5H-pyrrolo[3,4-d]pyrimidin-2-yl}piperazine-1-carbaldehyde]
COc1ccc(Nc2nc(N3CCOCC3)nc3c2CN(C(C)C)C3=O)cn1 [4-[(6-methoxypyridin-3-yl)amino]-6-(1-methylethyl)-2-morpholin-4-yl-5,6-dihydro-7H-pyrrolo[3,4-d]pyrimidin-7-one]
CC(C)N1Cc2c(Nc3ccc(C(F)(F)F)cc3)nc(N3CCOCC3)nc2C1=O [6-(1-methylethyl)-2-morpholin-4-yl-4-{[4-(trifluoromethyl)phenyl]amino}-5,6-dihydro-7H-pyrrolo[3,4-d]pyrimidin-7-one]
CC(C)N1Cc2c(NCc3nc(-c4ccccc4)no3)nc(N3C[C@@H](C)O[C@@H](C)C3)nc2C1=O [2-[(2R,6S)-2,6-dimethylmorpholin-4-yl]-6-(1-methylethyl)-4-{[(3-phenyl-1,2,4-oxadiazol-5-yl)methyl]amino}-5,6-dihydro-7H-pyrrolo[3,4-d]pyrimidin-7-one]
COC[C@H]1CCCN1c1nc(N2CCN(C(C)=O)CC2)nc2c1CN(C(C)C)C2=O [2-(4-acetylpiperazin-1-yl)-4-[(2R)-2-(methoxymethyl)pyrrolidin-1-yl]-6-(1-methylethyl)-5,6-dihydro-7H-pyrrolo[3,4-d]pyrimidin-7-one]
CC(=O)N1CCN(c2nc(NC(C)c3ccc(OCC(F)(F)F)nc3)c3c(n2)C(=O)N(C(C)C)C3)CC1 (centres unmarked) [2-(4-acetylpiperazin-1-yl)-6-(1-methylethyl)-4-({1-[6-(2,2,2-trifluoroethoxy)pyridin-3-yl]ethyl}amino)-5,6-dihydro-7H-pyrrolo[3,4-d]pyrimidin-7-one]
CC(=O)N1CCN(c2nc(NC3CCc4ccccc43)c3c(n2)C(=O)N(C(C)C)C3)CC1 (centres unmarked) [2-(4-acetylpiperazin-1-yl)-4-(2,3-dihydro-1H-inden-1-ylamino)-6-(1-methylethyl)-5,6-dihydro-7H-pyrrolo[3,4-d]pyrimidin-7-one]
CC(C)N1Cc2c(NCc3cnc4ccccc4c3)nc(N3CCC[C@@H]3CN3CCCC3)nc2C1=O [6-(1-methylethyl)-2-[(2R)-2-(pyrrolidin-1-ylmethyl)pyrrolidin-1-yl]-4-[(quinolin-3-ylmethyl)amino]-5,6-dihydro-7H-pyrrolo[3,4-d]pyrimidin-7-one]
CC(=O)N1CCN(c2nc(N)c3c(n2)C(=O)N(C(C)C)C3)CC1 [2-(4-acetylpiperazin-1-yl)-4-amino-6-(1-methylethyl)-5,6-dihydro-7H-pyrrolo[3,4-d]pyrimidin-7-one]
CC(C)N1Cc2c(Nc3ccc(Br)cc3)nc(N3CCOCC3)nc2C1=O [4-[(4-bromophenyl)amino]-6-(1-methylethyl)-2-morpholin-4-yl-5,6-dihydro-7H-pyrrolo[3,4-d]pyrimidin-7-one]
CC(=O)N1CCN(c2nc(NCc3cc(C)on3)c3c(n2)C(=O)N(C(C)C)C3)CC1 [2-(4-acetylpiperazin-1-yl)-6-(1-methylethyl)-4-{[(5-methylisoxazol-3-yl)methyl]amino}-5,6-dihydro-7H-pyrrolo[3,4-d]pyrimidin-7-one]
CC(=O)N1CCN(c2nc(NCc3c(C)nn(C)c3C)c3c(n2)C(=O)N(C(C)C)C3)CC1 [2-(4-acetylpiperazin-1-yl)-6-(1-methylethyl)-4-{[(1,3,5-trimethyl-1H-pyrazol-4-yl)methyl]amino}-5,6-dihydro-7H-pyrrolo[3,4-d]pyrimidin-7-one]
CC(=O)N1CCN(c2nc3c(c(N4CCC[C@@H]4C(=O)N(C)Cc4ccccc4)n2)CN(C(C)C)C3=O)CC1 [1-[2-(4-acetylpiperazin-1-yl)-6-(1-methylethyl)-7-oxo-6,7-dihydro-5H-pyrrolo[3,4-d]pyrimidin-4-yl]-N-benzyl-N-methyl-D-prolinamide]
C=CCN(Cc1ccccc1)c1nc(N2CCN(C(C)=O)CC2)nc2c1CN(C(C)C)C2=O [2-(4-acetylpiperazin-1-yl)-4-[benzyl(prop-2-en-1-yl)amino]-6-(1-methylethyl)-5,6-dihydro-7H-pyrrolo[3,4-d]pyrimidin-7-one]
CC(=O)N1CCN(c2nc(NC3COc4ccc(Cl)cc43)c3c(n2)C(=O)N(C(C)C)C3)CC1 (centres unmarked) [2-(4-acetylpiperazin-1-yl)-4-[(5-chloro-2,3-dihydro-1-benzofuran-3-yl)amino]-6-(1-methylethyl)-5,6-dihydro-7H-pyrrolo[3,4-d]pyrimidin-7-one]
CC(=O)N1CCN(c2nc3c(c(N4CCCC4Cc4ncccc4C)n2)CN(C(C)C)C3=O)CC1 (centres unmarked) [2-(4-acetylpiperazin-1-yl)-6-(1-methylethyl)-4-{2-[(3-methylpyridin-2-yl)methyl]pyrrolidin-1-yl}-5,6-dihydro-7H-pyrrolo[3,4-d]pyrimidin-7-one]
COc1ccc(C(C)(C)Nc2nc3c(c(N4CCN(C(C)=O)CC4)n2)CN(C(C)C)C3=O)cc1 [4-(4-acetylpiperazin-1-yl)-2-{[1-(4-methoxyphenyl)-1-methylethyl]amino}-6-(1-methylethyl)-5,6-dihydro-7H-pyrrolo[3,4-d]pyrimidin-7-one]
CC(C)N1Cc2c(NCc3cnc4ccccc4c3)nc(NC3CCS(=O)(=O)C3)nc2C1=O (centres unmarked) [2-[(1,1-dioxidotetrahydrothiophen-3-yl)amino]-6-(1-methylethyl)-4-[(quinolin-3-ylmethyl)amino]-5,6-dihydro-7H-pyrrolo[3,4-d]pyrimidin-7-one]
CC(=O)N1CCN(c2nc(NCc3nccc4ccccc34)c3c(n2)C(=O)N(C(C)C)C3)CC1 [2-(4-acetylpiperazin-1-yl)-4-[(isoquinolin-1-ylmethyl)amino]-6-(1-methylethyl)-5,6-dihydro-7H-pyrrolo[3,4-d]pyrimidin-7-one]

Reference: patent publication US20090099195A1 (ASTRAZENECA AB, priority 2007, published 2009)
